Values from PubChem BioAssay AID1259308 (NCATS, 2017)
Screen: 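Knock-downs that increase output of a recombinant reporter protein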 (primary screen). Cells: human HEK293 embryonic kidney cells stably expressing firefly luciferase (HEK-CMV-Luc2-Hygro). Reagent: single siRNA against human genes, 0.8 pmol siRNA per well. Time to read-out: 72 h. Read-out: 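Luciferase light (ONE-Glo) measured on one replicate plate set and viability (CellTiter-Glo) on the other, scaled to a negative control siRNA, with robust z-scores and luciferase per cell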. Direction: total luciferase, z-score: higher = more reporter protein produced. Active means: 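An siRNA counts as active if its total luciferase robust z-score exceeds 3; genes with two or more such siRNAs out of three were retested with fresh siRNAs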. Calls: active = raised luciferase; inactive = no rise.
The deposit covers about 59,000 reagents; this is an unselected part. Of all reagents, about 1,510 (2.6%) got an active call. 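Calls use total luciferase alone and ignore viability, so some active siRNAs may act by altering cell number.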 Reagents against one gene are numbered here. Not all columns of the deposit are shown.

After knock-down of PRR4 (proline rich 4) #1 the results were total luciferase, z-score -0.42; inactive.
PRR4 (proline rich 4) #2 scored total luciferase, z-score -1.44; inactive.
Knock-down of PRR4 (proline rich 4) #3 resulted in: total luciferase, z-score -1.75; inactive.
With knock-down of XAF1 (XIAP associated factor 1) #1 the results were total luciferase, z-score -1.09; inactive.
For XAF1 (XIAP associated factor 1) #2, the values are total luciferase, z-score 1.1; inactive.
After knock-down of XAF1 (XIAP associated factor 1) #3 the results were total luciferase, z-score -2.38; inactive.
Against CIMAP1A (ciliary microtubule associated protein 1A) #1, the values are total luciferase, z-score -1.63; inactive.
For CIMAP1A (ciliary microtubule associated protein 1A) #2, the entry reads total luciferase, z-score -0.0717; inactive.
Knock-down of CIMAP1A (ciliary microtubule associated protein 1A) #3 resulted in: total luciferase, z-score 1.75; inactive.
After knock-down of MIR9-2HG (MIR9-2 host gene) #1, the screen gave total luciferase, z-score -0.804; inactive.
For MIR9-2HG (MIR9-2 host gene) #2, the values are total luciferase, z-score -0.66; inactive.
Silencing of MIR9-2HG (MIR9-2 host gene) #3 came out at: total luciferase, z-score 0.941; inactive.
